PubChem BioAssay AID504774, Drosophila RNAi Screening Center | 2011
In all, the deposit lists about 23,000 reagents; below is a random part of those with a known target gene and a result. 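Values are quantile-normalised luminescence on an arbitrary scale; higher means more cells surviving MMS.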 A plus sign joins genes that one reagent is predicted to hit. Not all columns of the deposit are shown.

- Purpose: 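Fly genes whose loss alters survival after alkylation damage to DNA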 (primary screen)
- Cells: Drosophila Kc167 cells
- Reagent: long dsRNA against Drosophila genes, about 0.25 µg dsRNA per well
- Timing: about 6 days: 3 days knock-down, then 3 days with or without MMS
- Conditions: methyl methanesulphonate 0.004% (w/v) for 3 days after knock-down
- Measured: 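ATP-dependent luminescence as a measure of live cells in MMS-exposed wells, quantile normalised within each plate, with replicate values also given as a mean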
- Direction: mean viability with MMS: higher = more surviving cells after MMS

Nrx-IV [SID104191030] | mean viability with MMS = 3.52e6
CG31928 [SID104180085] | mean viability with MMS = 3.71e6
Cda9 [SID104186385] | mean viability with MMS = 3.48e6
NimC3 [SID104183348] | mean viability with MMS = 3.71e6
NimC3 [SID104201971] | mean viability with MMS = 3.34e6
PTP-ER [SID104184428] | mean viability with MMS = 3.60e6
PTP-ER [SID104202682] | mean viability with MMS = 3.44e6
CG32040 [SID104188773] | mean viability with MMS = 3.49e6
CG32040 [SID104201922] | mean viability with MMS = 3.49e6
Mkp + CG34140 [SID104188377] | mean viability with MMS = 3.47e6
CG18011 [SID104186489] | mean viability with MMS = 3.56e6
CG18011 [SID104186498] | mean viability with MMS = 3.61e6
CYLD [SID104182662] | mean viability with MMS = 3.98e6

Continued, starting with the last 2 of the part before.
CG18011 [SID104186498] | mean viability with MMS = 3.61e6
CYLD [SID104182662] | mean viability with MMS = 3.98e6
Oatp26F [SID104181941] | mean viability with MMS = 3.53e6
Oatp26F [SID104182064] | mean viability with MMS = 3.54e6
Oatp26F [SID104182487] | mean viability with MMS = 3.60e6
Fatp (retired record) [SID104182846] | mean viability with MMS = 3.45e6
muc [SID104182624] | mean viability with MMS = 3.76e6
muc [SID104201556] | mean viability with MMS = 3.46e6
CG4408 [SID104195366] | mean viability with MMS = 3.56e6
eIF2Bgamma [SID104186892] | mean viability with MMS = 3.42e6
CG34436 [SID104194956] | mean viability with MMS = 4.11e6
HmgZ [SID104183680] | mean viability with MMS = 3.30e6
HmgZ [SID104184412] | mean viability with MMS = 3.53e6
